Data from paper PMC6504873, “High-throughput screening of the Plasmodium falciparum cGMP-dependent protein kinase identified a thiazole scaffold which kills erythrocytic and sexual stage parasites” (Scientific Reports, 2019).

Test: Inhibition Frequency Index (IFI), promiscuity

Molecule `Nc1nccc(-c2c(-c3ccc(F)cc3)ncn2C2CCNCC2)n1` [Compound 1] has an IFI of 50.0.
